These results are taken from publication PMC7838639.

These are yes or no findings as the source states them, for the method shown. In cells and extracts the contact can be indirect. Some binding calls cover weakened binding; strength is not graded here.

The experiment addresses FLAG-TFE3 (pcDNA3.1-TFE3-N-FLAG) (mouse) (UniProt Q64092). In words: co-IP; lysates of COS-7 cells expressing FLAG-TFE3 and MYC-HDAC5 (full length and deletion mutants); IP with anti-FLAG M2 agarose 2 h at 4 °C, blot with anti-MYC; lysis buffer 50 mM potassium phosphate, 150 mM sodium chloride, 0.5% Triton X-100, pH 7.4.

Consider “MYC-HDAC5, full length (pcDNA3.1-HDAC5-MYC) (from UniProt Q9UQL6 1-1122) (enzyme)”, for which the binding result is on record as “binds”.
